PubChem BioAssay AID686937 – Drosophila RNAi Screening Center, 2013
Test: 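Genes in the fly needed for secretion of protein constitutively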 (primary screen). System: Drosophila S2 cells expressing secreted horseradish peroxidase. Knock-down reagent: long dsRNA against Drosophila genes. Duration: about 5.5 days (5 days dsRNA, then 12 h reporter induction). Treatment: reporter expression induced after 5 days of dsRNA, read 12 h later; inducer not stated. Read-out: 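Chemiluminescent measurement of peroxidase in the medium 12 h after reporter induction, following 5 days of dsRNA, given as a z-score per plate; higher means more secretion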. Direction: z-score: higher = more reporter secreted into medium.
In all, the deposit lists about 23,000 reagents; below is a random part of those that have a named target and a result. 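Reduced-secretion tags in replicate 1 do not always agree with the z-scores; no criterion for assigning the tags was given.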 A plus sign joins genes that one reagent is predicted to hit. Not all columns of the deposit are shown. Not stated in the record: the amount of reagent.

| target | DRSC id | z-score, replicate 1 | z-score, replicate 2 | z-score, replicate 3 |
| --- | --- | --- | --- | --- |
| CG12104 | DRSC08254 | 0.22 | 0.06 | – |
| mRpS34 (mitochondrial ribosomal protein S34) | DRSC09918 | -0.23 | 0.17 | – |
| CG5273 | DRSC18612 | 0.21 | 0.31 | – |
| htt (huntingtin) | DRSC16970 | 0.26 | 0.41 | – |
| Gba1b (Glucocerebrosidase 1b) | DRSC21531 | 1.31 | -0.68 | – |
| Meics (Meiotic central spindle) | DRSC11413 | 0.08 | -0.08 | – |
| CG32023 | DRSC08946 | -0.15 | -0.04 | – |
| YL-1 | DRSC02765 | -0.27 | -0.01 | – |
| Mcm2 (Minichromosome maintenance 2) | DRSC16734 | -0.08 | 0.04 | – |
| CG32563 | DRSC19934 | 0.22 | 0.28 | – |
| rn (rotund) | DRSC12500 | -4.08 | -5 | – |
| rn (rotund) | DRSC12543 | 0.4 | 0.44 | – |
| rn (rotund) | DRSC12544 | 0.12 | 0.05 | – |
| rn (rotund) | DRSC12546 | -0.17 | 0.07 | – |
| rn (rotund) | DRSC22291 | 0.73 | 0.85 | – |
| CG13868 | DRSC06427 | 0.43 | 0.17 | – |
| CG31683 + CG18858 | DRSC02703 | 0.02 | 0.32 | – |
| CG32445 | DRSC11678 | -0.77 | -0.68 | – |
| lncRNA:iab4 (long non-coding RNA:iab4) | DRSC22331 | -1.1 | 0.25 | – |
| su(f) (suppressor of forked) | DRSC20907 | -0.24 | 0.15 | – |
| shd (shade) | DRSC11129 | 0.32 | 0.21 | – |
| CG13833 | DRSC14683 | 0.36 | 0.4 | – |
| mio (missing oocyte) | DRSC00692 | -0.49 | -1.21 | – |
| mio (missing oocyte) | DRSC22056 | -1.04 | -0.13 | – |
| M7BP (Myosin-7a binding protein) | DRSC05053 | 0.23 | – | – |
| M7BP (Myosin-7a binding protein) | DRSC05054 | 0.98 | – | – |
| M7BP (Myosin-7a binding protein) | DRSC05932 | 0.35 | 0.33 | – |
| M7BP (Myosin-7a binding protein) | DRSC06701 | 0.12 | 0.2 | – |
| M7BP (Myosin-7a binding protein) | DRSC06816 | 0.32 | 0.45 | – |
| CG34454 | DRSC07864 | 0.35 | 0.35 | – |
| Nepl4 (Neprilysin-like 4) | DRSC03239 | 0.09 | 0.44 | – |
| Ir75a (Ionotropic receptor 75a) | DRSC10188 | 0.2 | 0.17 | – |
| CG7300 | DRSC03044 | 0.3 | 0.33 | – |
| Qtzl (Quetzalcoatl) | DRSC01221 | -0.89 | 0.03 | – |
| CG1239 | DRSC12204 | -0.01 | -0.03 | – |
| CG9514 | DRSC20190 | 0.31 | 0.27 | – |
| CG9514 | DRSC20191 | 0.38 | -0.04 | – |
| mor (moira) | DRSC15378 | -1.28 | -2.44 | – |
| CG6766 | DRSC02991 | 0.24 | 0.55 | 0.25 |
| CG32572 | DRSC19525 | 0.31 | 0.43 | – |
| CG32572 | DRSC19526 | 0.13 | 0.35 | – |
| CG5265 | DRSC15756 | -0.04 | -0.33 | – |
| Cerk (Ceramide kinase) | DRSC12285 | 0.22 | 0.34 | – |
| Gr89a (Gustatory receptor 89a) | DRSC15023 | -0.13 | 0.07 | – |
| CG18577 | DRSC15352 | 0.25 | -1.08 | – |
| CG9331 | DRSC03206 | 0.59 | 0.6 | – |
| Cpr65Eb (Cuticular protein 65Eb) | DRSC11026 | 0.33 | 0.36 | – |
| Sox14 (Sox box protein 14) | DRSC04656 | 0.52 | 0.53 | – |
| ND-13B (NADH dehydrogenase (ubiquinone) 13 kDa B subunit) | DRSC10643 | -0.3 | 0.13 | – |
| ana1 (anastral spindle 1) | DRSC16079 | 0.34 | 0.51 | – |
| ana1 (anastral spindle 1) | DRSC21825 | -0.03 | 1.21 | – |
| CG32240 | DRSC08093 | -0.14 | -0.14 | – |
| CG14043 | DRSC02368 | 0.11 | 0.2 | – |
| CG15628 | DRSC00256 | -1.75 | -3.33 | – |
| CG15628 | DRSC00463 | 0.02 | 0.07 | – |
| Mtch | DRSC08679 | 0.35 | 0.3 | – |
| ebi | DRSC00816 | -0.28 | 0.07 | – |
| Spase25 (Spase 25-subunit) | DRSC19776 | -1.78 | -1.08 | – |
| CG30022 | DRSC22405 | -0.21 | 0.01 | – |
| CG31816 | DRSC01547 | 0.22 | 0.11 | – |
| Gr22e (Gustatory receptor 22e) | DRSC20912 | -0.78 | -0.36 | – |
| CG5767 | DRSC06953 | 0.2 | 0.59 | – |
| nAChRalpha1 (nicotinic Acetylcholine Receptor alpha1) | DRSC13664 | -2.2 | -0.93 | – |
| nAChRalpha1 (nicotinic Acetylcholine Receptor alpha1) | DRSC13670 | -2.1 | -0.51 | – |
| nAChRalpha1 (nicotinic Acetylcholine Receptor alpha1) | DRSC13672 | 0.68 | 0.78 | – |
| nAChRalpha1 (nicotinic Acetylcholine Receptor alpha1) | DRSC17008 | 0.34 | 0.38 | – |
| Naa60 (N(alpha)-acetyltransferase 60) | DRSC10301 | 0.36 | 0.14 | – |
| APC4 (Anaphase Promoting Complex subunit 4) | DRSC18360 | -0.15 | -0.65 | – |

An excerpt from above, reduced to “z-score, replicate 2”.
Nepl4 (Neprilysin-like 4) [DRSC03239] = 0.44
Ir75a (Ionotropic receptor 75a) [DRSC10188] = 0.17
CG7300 [DRSC03044] = 0.33
Qtzl (Quetzalcoatl) [DRSC01221] = 0.03
CG1239 [DRSC12204] = -0.03
CG9514 [DRSC20190] = 0.27
CG9514 [DRSC20191] = -0.04
mor (moira) [DRSC15378] = -2.44
CG6766 [DRSC02991] = 0.55
CG32572 [DRSC19525] = 0.43
CG32572 [DRSC19526] = 0.35

Additional results follow.
| target | DRSC id | z-score, replicate 1 | z-score, replicate 2 | z-score, replicate 3 |
| --- | --- | --- | --- | --- |
| CG31178 | DRSC14590 | 0.23 | 0.5 | – |
| CG9512 | DRSC20189 | 0.46 | 0.61 | – |
| Prp4k (Pre-mRNA processing factor 4 kinase) | DRSC08144 | 0.43 | -0.16 | – |
| CG14294 | DRSC14774 | 0.49 | 0.41 | – |
| Evi5 (Ecotropic viral integration site 5) | DRSC19421 | 0.56 | 0.38 | – |
| CG7879 | DRSC08600 | 0.2 | 0.23 | – |
| jagn (jagunal) | DRSC12152 | 0.33 | 0.44 | – |
| eIF2Bepsilon (eukaryotic translation initiation factor 2B subunit epsilon) | DRSC18769 | -0.23 | -0.84 | – |
| nero | DRSC15432 | 0.09 | -0.04 | – |
| kraken | DRSC00824 | 0.04 | 0.17 | – |
| CG6426 | DRSC06985 | 0.37 | 0.69 | – |
| CG7142 | DRSC16204 | 0.41 | 0.51 | – |
| CG14417 | DRSC18638 | 0.43 | 0.37 | – |
| Mtap (Methylthioadenosine phosphorylase) | DRSC06890 | -0.26 | -0.45 | – |
| Inos (myo-inositol-1-phosphate synthase) | DRSC07655 | 0.24 | 0.03 | – |
| asRNA:CR42743 + CG34162 | DRSC01190 | 0.2 | 0.15 | – |
| CG14787 | DRSC18606 | 0.04 | 0.31 | – |
| bsf (bicoid stability factor) | DRSC02035 | 0.41 | 0.12 | – |
| RacGAP84C (Rac GTPase activating protein at 84C) | DRSC12630 | 0.09 | 0.68 | – |
| CG33060 | DRSC09939 | 0.14 | 0.18 | – |
| Su(var)205 (Suppressor of variegation 205) | DRSC03446 | 0.4 | 0.28 | – |
| lmgA + lmgB | DRSC03566 | 0.3 | 0.24 | – |
| larp (La related protein) | DRSC14728 | 0.57 | 0.35 | – |
| larp (La related protein) | DRSC16984 | 0.02 | -0.17 | – |
| larp (La related protein) | DRSC21856 | 0.28 | 0.18 | – |
| Ilp8 (Insulin-like peptide 8) | DRSC10076 | 0.54 | 0.28 | – |
| Taf9 (TBP-associated factor 9) | DRSC20326 | 0.25 | 0.41 | – |
| glob1 (globin 1) | DRSC16959 | -0.02 | 0.15 | – |
| CG13031 | DRSC09911 | 0.49 | 0.55 | – |
| CG45263 | DRSC12682 | 0.45 | 0.41 | – |
| CG45263 | DRSC14357 | 0.43 | 0.26 | – |
| CG45263 | DRSC14360 | 0 | 0.25 | – |
| CG45263 | DRSC14361 | -0.31 | -0.28 | – |
| CG45263 | DRSC14363 | 0.39 | 0.21 | – |
| CG14958 | DRSC08417 | -0.25 | -0.09 | – |
| lky (leaky) | DRSC20682 | 0.2 | 0.17 | – |
